Data reported in PubChem BioAssay AID1671190 (National Center for Advancing Translational Sciences (NCATS), 2021).
Where “and” joins values, the source holds several entries; their conditions need not be identical. Identical values can stand only once. About 6,100 (1.1%) of roughly 580,000 compounds were called active. Inconclusive results, whose numbers are uncertain, are shown with a selection of clear calls. Calls come from the whole dose curve; as a rule, active = well fitted inhibition curve with a large enough effect; inconclusive = small, poorly fitted or top-dose-only effect, or another doubt; inactive = no such curve, though single readings can be large or run the other way. Potencies of inconclusive entries are doubtful fits and often do not repeat.

Amino acid sequences for entries named in this document (tags omitted).
UniProt P18054, whole entry, looked up: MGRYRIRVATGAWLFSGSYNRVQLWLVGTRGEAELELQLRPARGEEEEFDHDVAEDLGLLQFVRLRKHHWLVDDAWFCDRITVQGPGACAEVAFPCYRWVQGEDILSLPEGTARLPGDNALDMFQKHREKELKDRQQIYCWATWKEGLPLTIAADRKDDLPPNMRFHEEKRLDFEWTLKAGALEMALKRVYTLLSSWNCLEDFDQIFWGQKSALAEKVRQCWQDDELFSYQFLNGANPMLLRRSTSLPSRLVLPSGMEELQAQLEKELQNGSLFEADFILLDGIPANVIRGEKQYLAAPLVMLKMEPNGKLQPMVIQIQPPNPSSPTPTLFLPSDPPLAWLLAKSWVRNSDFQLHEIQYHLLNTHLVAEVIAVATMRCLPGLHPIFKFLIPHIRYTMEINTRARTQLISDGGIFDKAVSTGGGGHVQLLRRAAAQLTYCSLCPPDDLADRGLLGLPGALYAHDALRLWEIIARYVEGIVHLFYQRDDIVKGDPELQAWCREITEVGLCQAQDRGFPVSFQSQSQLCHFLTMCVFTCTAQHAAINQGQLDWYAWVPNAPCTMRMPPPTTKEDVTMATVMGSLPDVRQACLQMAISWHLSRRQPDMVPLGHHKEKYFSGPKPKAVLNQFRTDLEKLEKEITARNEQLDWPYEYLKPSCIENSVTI

Biological target: Polyunsaturated fatty acid lipoxygenase ALOX12 (Homo sapiens) (UniProt P18054)
Test: Primary qHTS assay for inhibitors of human arachidonate 12S-lipoxygenase (ALOX12): Round 2
Conditions: purified 12hLO, xylenol orange hydroperoxide absorbance; series mostly up to 108 µM
In short: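 Purified human 12hLO (150 nM final) in 25 mM Hepes, 0.01% Triton X-100, pH 7.0 was preincubated 15 min at room temperature with compound. Then 40 uM arachidonic acid was added, 30 min. Hydroperoxide was read by Fe-XO absorbance ratio 573/405 nm.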
Potency is the fitted concentration of half-maximal effect.

With COC(=O)C(O)(c1c(C)[nH]n(-c2ccccc2)c1=O)C(F)(F)F (stereo unspecified) as the molecule, how does the Potency read?
Its Potency is inconclusive: 50.1 µM [inhibitor, single point].

CC[C@H]1CN2CC[C@H]1C[C@@H]2COC(=O)Nc1cccc2ccccc12 was tested. Which Potency did it give?
The Potency was inconclusive: 100 µM [inhibitor, partial curve, poor fit].

Which Potency does the source give for COc1ccc(CN(CCc2c[nH]c3ccccc23)Cc2ccc(OC)cc2)cc1 here?
Its Potency is inconclusive: 56.2 µM [inhibitor, single point].

COc1cccc2c1NC1(C)c3cc4c(cc3-n3nncc3CN1C2=O)OCO4 (stereo unspecified) was tested. Which Potency did it give?
Its Potency is “inactive”.

For COC(=O)CN1C(=O)CN=C(c2ccccc2Cl)c2cc(Br)ccc21, which Potency is on record?
The Potency was inconclusive: 126 µM [inhibitor, partial curve, poor fit].

For COc1cccc(C2SCC(=O)Nc3c2c(C)nn3C)c1OCc1ccccc1C (stereo unspecified), which Potency is on record?
The Potency was inconclusive: 44.7 µM [inhibitor, partial curve, poor fit].

With COc1cc(C(=O)NN=Cc2ccc(N(CCCl)CCCl)cc2)cc(OC)c1OC as the molecule, how does the Potency read?
The Potency was “inactive”.

CC(=O)N1CC[N+](C)(C)CC1 was tested. Which Potency did it give?
Its Potency is “inactive”.

How did the Potency turn out when Nc1ccccc1C(=O)OCC(=O)Nc1ccc(Br)cc1F was run?
The Potency was inconclusive: 112 µM [inhibitor, single point].

With CCOc1ccccc1-n1c(O)c(C=Nc2c(C)n(C)n(-c3ccccc3)c2=O)c(=O)[nH]c1=O as the molecule, how does the Potency read?
The Potency was “inactive”.

Which Potency does the source give for CCCN(CC#CCOc1ccc(OC)cc1)CCC here?
The Potency was inconclusive: 1.78 µM [inhibitor, full curve, poor fit].

Which Potency does the source give for COC(=O)C1=C(c2ccc(Cl)c(C(F)(F)F)c2)C[C@@H]2CC[C@H]1N2C(=O)NCc1ccco1 here?
The Potency was inconclusive: 50.1 µM [inhibitor, partial curve, poor fit].

With CCN1CCN(c2ccc(N)c(C)c2)CC1 as the molecule, how does the Potency read?
The Potency was “inactive”.

How did the Potency turn out when COc1ccccc1CN1CCN(C(=O)COc2cccc(C)c2)CC1 was run?
Its Potency is inconclusive: 1.26 µM [inhibitor, full curve] and inconclusive: 4.47 µM [inhibitor, full curve, poor fit].

Which Potency does the source give for COc1ccccc1N1C(=O)NC(=O)/C(=C/c2ccc([N+](=O)[O-])s2)C1=O here?
Its Potency is inconclusive: 35.5 µM [inhibitor, partial curve, poor fit].

CC[C@@H](CO)NC(=O)[C@@H]1C=C2c3cccc4c3c(cn4C)C[C@H]2N(C)C1 was tested. Which Potency did it give?
Its Potency is inconclusive: 50.1 µM [inhibitor, partial curve, poor fit].

With CCOC(=O)c1c(/N=C/C2C(=O)NC(=O)NC2=O)sc2c1CCC2 as the molecule, how does the Potency read?
The Potency was “inactive”.

Which Potency does the source give for O=C1NC(=S)N(c2ccc(Cl)cc2)C(=O)/C1=C/N1CCN(C(=O)c2ccco2)CC1 here?
The Potency was inconclusive: 50.1 µM [inhibitor, partial curve, poor fit].

With COc1ccccc1N1CCN(C[C@H]2CN3CC[C@H]2C[C@@H]3CNC(=O)c2ccc3c(c2)OCO3)CC1 as the molecule, how does the Potency read?
The Potency was “inactive”.

How did the Potency turn out when c1ccc(-c2ccc3c(c2)CNCc2cnnn2-3)cc1 was run?
Its Potency is inconclusive: 0.562 µM [inhibitor, full curve].

OC1C2(c3ccccc3)CN3CN(C2)CC1(c1ccccc1)C3 (stereo unspecified) was tested. Which Potency did it give?
The Potency was “inactive”.

For C/C(=N\NC(=O)c1ccccc1)c1c(O)n(C2CCCCC2)c(=O)[nH]c1=O, which Potency is on record?
Its Potency is “inactive”.

With CCOc1ccc(NC(=O)C2C3c4ccccc4C(c4ccccc43)C2C(=O)O)cc1 (stereo unspecified) as the molecule, how does the Potency read?
The Potency was “inactive”.

Cc1ccccc1-n1nc(C)c2c1NC(=O)CSC2c1ccccc1C(F)(F)F (stereo unspecified) was tested. Which Potency did it give?
The Potency was inconclusive: 63.1 µM [inhibitor, partial curve, poor fit].

Which Potency does the source give for Cn1cc(C(=O)OCC(=O)NC2CCCCCCC2)c2ccccc21 here?
The Potency was inconclusive: 89.1 µM [inhibitor, partial curve, poor fit].

How did the Potency turn out when CCN1CC2ON=C(C(=O)O)C2C1 (stereo unspecified) was run?
Its Potency is inconclusive: 5.17 µM [inhibitor, single point].

Cc1nonc1CC(=O)N1C[C@H](O)[C@@H](N2CCC(O)CC2)C1 was tested. Which Potency did it give?
Its Potency is active: 12.6 µM.

For O=C(NC[C@H]1C[C@@H]2CCN1C[C@@H]2CN1CCCCC1)c1ccccc1, which Potency is on record?
Its Potency is “inactive”.

For CC[C@H]1CN2CC[C@H]1C[C@@H]2CNS(=O)(=O)c1cccc(F)c1, which Potency is on record?
The Potency was “inactive”.

Which Potency does the source give for c1ccc(-c2nc(N3CCOCC3)s[n+]2-c2ccccc2)cc1 here?
Its Potency is active: 31.6 µM.

With CC(C)CN1C[C@@H]2OCC(=O)N(CC(N)=O)[C@@H]2C1 as the molecule, how does the Potency read?
The Potency was “inactive”.

With CN1[C@@H](CCC(=O)NCc2cccnc2)CNC(=O)[C@H]2NCC[C@H]21 as the molecule, how does the Potency read?
The Potency was “inactive”.

COc1ccc(-n2nnnc2C(c2ccnc3ccccc23)N2CCC(n3c(=O)[nH]c4ccccc43)CC2)cc1 (stereo unspecified) was tested. Which Potency did it give?
The Potency was inconclusive: 50.1 µM [inhibitor, partial curve, poor fit].

Cn1c(O)c(Cc2cccc(Cl)c2Cl)c(=O)n(C)c1=O was tested. Which Potency did it give?
The Potency was inconclusive: 126 µM [inhibitor, partial curve, poor fit].

COc1ccc(N2C(=O)NC(=O)C3(Cc4cc(C)ccc4N(C)C3)C2=O)cc1 (stereo unspecified) was tested. Which Potency did it give?
The Potency was inconclusive: 8.91 µM [inhibitor, full curve, poor fit].

How did the Potency turn out when Cc1ccc2c(c1)CC1(CN2C)C(=O)NC(=O)N(c2cccc(C)c2C)C1=O (stereo unspecified) was run?
Its Potency is inconclusive: 112 µM [inhibitor, partial curve, poor fit].

With Cc1cc(N2CCNC[C@H]2C)ccc1N1CCN[C@@H](C)C1 as the molecule, how does the Potency read?
Its Potency is inconclusive: 44.7 µM [inhibitor, partial curve, poor fit].

With Cc1ccc(S(=O)(=O)NCCC(=O)Nc2ccc(Cl)cc2C(=O)c2ccccc2)cc1 as the molecule, how does the Potency read?
The Potency was inconclusive: 28.2 µM [inhibitor, partial curve, poor fit].

With Cc1ccc(/C=C2\C(=O)NC(=S)N(c3ccccc3F)C2=O)s1 as the molecule, how does the Potency read?
The Potency was active: 39.8 µM.

Which Potency does the source give for Nc1nc(N)c2cnnn2n1 here?
The Potency was “inactive”.

For COC(=O)[C@@H]1C[C@@]1(C)[C@@H](NP(=O)(c1ccccc1)c1ccccc1)c1ccccc1, which Potency is on record?
Its Potency is inconclusive: 126 µM [inhibitor, single point].

With O=c1oc2ccccc2c(O)c1[C@H]1c2ccc(O)cc2Oc2c1c(=O)oc1ccccc21 as the molecule, how does the Potency read?
Its Potency is inconclusive: 50.1 µM [inhibitor, partial curve, poor fit].

For COC(=O)C(O)(c1ccc(NC(=S)NC(=O)c2ccc(Cl)cc2Cl)cc1)C(F)(F)F (stereo unspecified), which Potency is on record?
Its Potency is inconclusive: 7.94 µM [inhibitor, full curve, poor fit].

CC(C)OP(=O)(OC(C)C)C(NCc1ccccc1)c1ccccc1 (stereo unspecified) was tested. Which Potency did it give?
The Potency was inconclusive: 39.8 µM [inhibitor, partial curve, poor fit].

Which Potency does the source give for Cc1cccc(CN2CCN(Cc3ccccc3F)CC2)c1 here?
The Potency was inconclusive: 0.355 µM [inhibitor, full curve, poor fit].

With COC(=O)C1=C(c2ccc(OC)c(OC)c2)C[C@@H]2CC[C@H]1N2C(=O)NCCc1ccccc1 as the molecule, how does the Potency read?
The Potency was “inactive”.

Which Potency does the source give for COc1ccc([C@@H]2CN(C(=O)Cc3nonc3C)[C@@H]3C4CCN(CC4)[C@@H]32)cc1 here?
Its Potency is “inactive”.

With O=C(Cc1cccs1)N1Cc2ccccc2-n2nncc2C1 as the molecule, how does the Potency read?
The Potency was active: 39.8 µM.

How did the Potency turn out when C#C[C@H]1CN2CC[C@H]1C[C@@H]2CNS(=O)(=O)c1ccc(Cl)cc1 was run?
The Potency was inconclusive: 35.5 µM [inhibitor, full curve].

For C=CCON=C(C[C@H]1O[C@@H]2O[C@]3(C)CC[C@@H]4[C@H](C)CC[C@@H]([C@H]1C)[C@@]24OO3)[C@H]1O[C@@H]2O[C@]3(C)CC[C@H]4[C@H](C)CC[C@@H]([C@@H]1C)[C@@]24OO3, which Potency is on record?
The Potency was “inactive”.

Which Potency does the source give for COC(=O)c1cn(C(=O)c2cccc3ccccc23)c2ccccc12 here?
Its Potency is “inactive”.

With c1ccc(CCNC2CCCCCC2)cc1 as the molecule, how does the Potency read?
The Potency was inconclusive: 25.1 µM [inhibitor, full curve, poor fit].

With CC1CCN(C[C@H]2CN3CC[C@H]2C[C@@H]3CNC(=O)c2ccc(N(C)C)cc2)CC1 as the molecule, how does the Potency read?
Its Potency is “inactive”.

For O=c1cccc2n1CC1CC2CN(S(=O)(=O)c2ccc(F)cc2)C1 (stereo unspecified), which Potency is on record?
Its Potency is inconclusive: 79.4 µM [inhibitor, single point].

O=C(COc1ccc2ccccc2c1)N1CCN(Cc2ccncc2)CC1 was tested. Which Potency did it give?
The Potency was inconclusive: 0.141 µM [inhibitor, full curve, poor fit].

With CCC(c1ccc(C)cc1)N1C(=O)C2C3CCC(O3)C2C1=O (stereo unspecified) as the molecule, how does the Potency read?
Its Potency is inconclusive: 126 µM [inhibitor, single point].

Which Potency does the source give for CCN(CC)C(=O)N[C@H]1C[C@@H]2c3cccc4[nH]cc(c34)C[C@H]2N(C)C1 here?
The Potency was “inactive”.

O=C(O)CCC(=O)NCCC1=c2ccccc2=N/C1=C\c1c(O)n(Cc2ccc(F)cc2)c(=S)[nH]c1=O was tested. Which Potency did it give?
The Potency was inconclusive: 31.6 µM [inhibitor, full curve, poor fit].

With Cc1ccccc1-c1ccc2n(c1=O)C[C@H]1C[C@@H]2CN(C(=O)Nc2ccc(Cl)cc2)C1 as the molecule, how does the Potency read?
Its Potency is inconclusive: 89.1 µM [inhibitor, partial curve, poor fit].

COc1cc2c(cc1OC1CCCC1)NC(=O)C21CCN(C(=O)Cc2ccccc2)CC1 was tested. Which Potency did it give?
Its Potency is “inactive”.

For NCCc1ccc(OCc2ccccc2)c(OCc2ccccc2)c1, which Potency is on record?
The Potency was inconclusive: 50.1 µM [inhibitor, partial curve, poor fit].

How did the Potency turn out when COc1cc2c(cc1OCc1ccccc1)N(C(=O)c1cccc3[nH]ccc13)CC21CCN(C)CC1 was run?
Its Potency is inconclusive: 3.55 µM [inhibitor, full curve].

Which Potency does the source give for CCC(c1nnnn1C1CCCC1)N1CCC2(CC1)C(=O)NCN2c1ccccc1 (stereo unspecified) here?
The Potency was “inactive”.

Which Potency does the source give for COc1ccccc1N1C(=O)NC(=O)/C(=C/c2ccc3c(c2)Cc2ccccc2-3)C1=O here?
Its Potency is inconclusive: 44.7 µM [inhibitor, partial curve, poor fit].

With Cc1ccccc1-c1ccc2n(c1=O)C[C@H]1C[C@@H]2CN(C(=O)Nc2cccc(F)c2)C1 as the molecule, how does the Potency read?
The Potency was “inactive”.
